These are yes or no findings as the source states them, for the method shown. Binding seen in cells or lysates may run through a third protein. Some binding calls cover weakened binding; strength is not graded here.
Legend:
[1] = molecular target: RAGA (RRAGA, Ras-related GTP binding A), endogenous (human (endogenous; the cell line is not named, all lines cultured are human)) (UniProt Q7L523); assay: co-IP; endogenous proteins; RAGA immunoprecipitation from cells lysed in RIPA lysis buffer, primary antibody overnight at 4 °C, protein A/G agarose beads 3 h, four washes with RIPA buffer, immunoblot
[2] = molecular target: RAGA as used in the co-immunoprecipitation with the CD47 truncation mutants (UniProt Q7L523); assay: co-IP; 3xflag-tagged CD47 full length and truncation mutants with RAGA; cells lysed in RIPA lysis buffer, primary antibody overnight at 4 °C, protein A/G agarose beads, immunoblot; which partner was precipitated is not told

Protein sequences, listed by entry. Tags and fused reporters are not part of them. Lines headed by an entry give the natural chain unless they say otherwise; changes in a name come on top. Residues count along the entry.
UniProt Q7L523: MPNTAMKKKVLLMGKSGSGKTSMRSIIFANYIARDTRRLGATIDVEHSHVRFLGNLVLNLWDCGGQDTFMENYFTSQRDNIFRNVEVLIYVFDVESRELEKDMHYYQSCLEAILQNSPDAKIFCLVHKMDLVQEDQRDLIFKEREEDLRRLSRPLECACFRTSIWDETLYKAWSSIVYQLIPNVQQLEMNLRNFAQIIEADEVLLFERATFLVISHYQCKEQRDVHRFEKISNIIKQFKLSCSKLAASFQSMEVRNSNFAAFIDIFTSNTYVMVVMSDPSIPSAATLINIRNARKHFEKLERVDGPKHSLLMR
UniProt Q08722, residues 19-323: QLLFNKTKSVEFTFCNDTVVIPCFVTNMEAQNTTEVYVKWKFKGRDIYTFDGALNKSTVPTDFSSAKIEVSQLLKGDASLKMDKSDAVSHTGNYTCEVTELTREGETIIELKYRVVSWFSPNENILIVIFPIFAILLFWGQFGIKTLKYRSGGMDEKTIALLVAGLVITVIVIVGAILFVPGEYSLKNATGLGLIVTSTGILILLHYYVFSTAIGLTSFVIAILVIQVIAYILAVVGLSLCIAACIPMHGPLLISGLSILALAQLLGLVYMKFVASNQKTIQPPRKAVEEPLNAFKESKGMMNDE

Row | Substance | binding [1] | binding [2]
1 | CD47 (cluster of differentiation 47), endogenous (from UniProt Q08722 19-323) | binds | 
2 | 3xflag-tagged full length (FL) CD47 (from UniProt Q08722 19-323) |  | binds

Reference: paper PMC9950044
